Counter-ions that a name gives are not always drawn. Some of the results follow. Most values lie at the level of the controls, where differences are scatter.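 Using flow cytometry, the assay measures the median γH2AX antibody signal in S-phase Reh cells (a human leukemia line). Each score is the number of standard deviations from the median difference of paired plate sets. Candidate hits scored above 2.5; compounds scoring below -2 lowered MK1775-induced damage.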

This experiment deals with Reh. Nature of the experiment: Z' of S-phase gammaH2AX difference (drug + MK1775 minus drug alone) (Z-score); higher = stronger synergistic S-phase DNA damage with MK1775. Particulars: MK1775 concentration 400 nM; first compound 10 µM; 4 h.
Consider `CCOC(=O)C1=C(C)NC(C)=C(C(=O)OC)C1c1cccc([N+](=O)[O-])c1` (configuration not stated) [Nitrendipine] + C=CCn1c(=O)c2cnc(Nc3ccc(N4CCN(C)CC4)cc3)nc2n1-c1cccc(C(C)(C)O)n1 [MK1775], for which the “Z' of S-phase gammaH2AX difference (Z-score)” value was inactive: 0.936. The result for `CN(C)c1nc(N)c(C(=O)NC(=N)N)nc1Cl` [5-(N,N-Dimethyl)amiloride hydrochloride] + C=CCn1c(=O)c2cnc(Nc3ccc(N4CCN(C)CC4)cc3)nc2n1-c1cccc(C(C)(C)O)n1 [MK1775] reads inactive: 0.267; that for `O=C(c1ccc(OCCN2CCCCC2)cc1)c1c(-c2ccc(O)cc2)sc2cc(O)ccc12` [Evista (Raloxifene Hydrochloride)] + C=CCn1c(=O)c2cnc(Nc3ccc(N4CCN(C)CC4)cc3)nc2n1-c1cccc(C(C)(C)O)n1 [MK1775], inactive: 0.0303. For the compound `O=C(c1ccc(OCCN2CCCCC2)cc1)c1c(-c2ccc(O)cc2)sc2cc(O)ccc12` [Raloxifene hydrochloride] + C=CCn1c(=O)c2cnc(Nc3ccc(N4CCN(C)CC4)cc3)nc2n1-c1cccc(C(C)(C)O)n1 [MK1775], the “Z' of S-phase gammaH2AX difference (Z-score)” value is inactive: -0.534.

`CC(CN1c2ccccc2Sc2ccccc21)N(C)C` (configuration not stated) [Promethazine hydrochloride] + C=CCn1c(=O)c2cnc(Nc3ccc(N4CCN(C)CC4)cc3)nc2n1-c1cccc(C(C)(C)O)n1 [MK1775]: the “Z' of S-phase gammaH2AX difference (Z-score)” value is inactive: -0.0922. For `CNC(=O)c1ccccc1Sc1ccc2c(/C=C/c3ccccn3)n[nH]c2c1` [Axitinib] + C=CCn1c(=O)c2cnc(Nc3ccc(N4CCN(C)CC4)cc3)nc2n1-c1cccc(C(C)(C)O)n1 [MK1775], the “Z' of S-phase gammaH2AX difference (Z-score)” value is inactive: 0.638. The result for `COc1ccccc1CNCCCCCCNCCCCCCCCNCCCCCCNCc1ccccc1OC` [Methoctramine tetrahydrochloride] + C=CCn1c(=O)c2cnc(Nc3ccc(N4CCN(C)CC4)cc3)nc2n1-c1cccc(C(C)(C)O)n1 [MK1775] reads inactive: 1.01; that for `O=C(NC1CCNCC1)c1n[nH]cc1NC(=O)c1c(Cl)cccc1Cl` + C=CCn1c(=O)c2cnc(Nc3ccc(N4CCN(C)CC4)cc3)nc2n1-c1cccc(C(C)(C)O)n1 [MK1775], inactive: -0.999. For `CC[C@H](Nc1ncnc2[nH]cnc12)c1nc2cccc(F)c2c(=O)n1-c1ccccc1` + C=CCn1c(=O)c2cnc(Nc3ccc(N4CCN(C)CC4)cc3)nc2n1-c1cccc(C(C)(C)O)n1 [MK1775], the “Z' of S-phase gammaH2AX difference (Z-score)” value is inactive: 0.0407.

In the case of `Nn1nnc2ccccc21` [1-Aminobenzotriazole] + C=CCn1c(=O)c2cnc(Nc3ccc(N4CCN(C)CC4)cc3)nc2n1-c1cccc(C(C)(C)O)n1 [MK1775], the “Z' of S-phase gammaH2AX difference (Z-score)” value is inactive: -0.474. Regarding `CN(C)CCCC1(c2ccc(F)cc2)OCc2cc(C#N)ccc21` (configuration not stated) [Citalopram hydrobromide] + C=CCn1c(=O)c2cnc(Nc3ccc(N4CCN(C)CC4)cc3)nc2n1-c1cccc(C(C)(C)O)n1 [MK1775], the “Z' of S-phase gammaH2AX difference (Z-score)” value was inactive: 1.35. Consider `CCCC(CCC)C(=O)O` [Valproic acid sodium salt (Sodium valproate)] + C=CCn1c(=O)c2cnc(Nc3ccc(N4CCN(C)CC4)cc3)nc2n1-c1cccc(C(C)(C)O)n1 [MK1775], for which the “Z' of S-phase gammaH2AX difference (Z-score)” value was inactive: 0.215. Regarding `COc1ccccc1N1CCN(CCN2C(=O)CC3(CCCC3)CC2=O)CC1` [BMY 7378 dihydrochloride] + C=CCn1c(=O)c2cnc(Nc3ccc(N4CCN(C)CC4)cc3)nc2n1-c1cccc(C(C)(C)O)n1 [MK1775], the “Z' of S-phase gammaH2AX difference (Z-score)” value was inactive: -0.568. As to `CN(C)CCC(c1ccc(Cl)cc1)c1ccccn1` (configuration not stated) [(?)-Chlorpheniramine maleate] + C=CCn1c(=O)c2cnc(Nc3ccc(N4CCN(C)CC4)cc3)nc2n1-c1cccc(C(C)(C)O)n1 [MK1775], the “Z' of S-phase gammaH2AX difference (Z-score)” value was inactive: 0.585. The result for `C[C@H](O)C(=O)C1=Nc2c(nc(N)[nH]c2=O)NC1` [Sepiapterin] + C=CCn1c(=O)c2cnc(Nc3ccc(N4CCN(C)CC4)cc3)nc2n1-c1cccc(C(C)(C)O)n1 [MK1775] reads inactive: 0.0354. For the compound `CC(C)(C)c1cc(/C=C(\C#N)C(N)=S)cc(C(C)(C)C)c1O` [Tyrphostin AG 879] + C=CCn1c(=O)c2cnc(Nc3ccc(N4CCN(C)CC4)cc3)nc2n1-c1cccc(C(C)(C)O)n1 [MK1775], the “Z' of S-phase gammaH2AX difference (Z-score)” value was inactive: 0.226. In the case of `O=C(O)c1ccccc1Nc1cccc(OCc2ccc3ccccc3n2)c1` + C=CCn1c(=O)c2cnc(Nc3ccc(N4CCN(C)CC4)cc3)nc2n1-c1cccc(C(C)(C)O)n1 [MK1775], the “Z' of S-phase gammaH2AX difference (Z-score)” value was inactive: 0.345. With `COc1cc(C(O)C(=O)O)ccc1O` (configuration not stated) [(?)-Vanillylmandelic acid] + C=CCn1c(=O)c2cnc(Nc3ccc(N4CCN(C)CC4)cc3)nc2n1-c1cccc(C(C)(C)O)n1 [MK1775], the “Z' of S-phase gammaH2AX difference (Z-score)” value was inactive: -0.367.

Consider `COc1ccc(COc2cc3oc(=O)c4cc(C(C)O)ccc4c3cc2OC)cc1` (configuration not stated) [Palomid 529] + C=CCn1c(=O)c2cnc(Nc3ccc(N4CCN(C)CC4)cc3)nc2n1-c1cccc(C(C)(C)O)n1 [MK1775], for which the “Z' of S-phase gammaH2AX difference (Z-score)” value is inactive: 0.154. For `CCCCCCCC/C=C\CCCCCCCC(=O)O` [Oleic Acid] + C=CCn1c(=O)c2cnc(Nc3ccc(N4CCN(C)CC4)cc3)nc2n1-c1cccc(C(C)(C)O)n1 [MK1775], the “Z' of S-phase gammaH2AX difference (Z-score)” value was inactive: 0.223. For `CC(C)(C)NCC(O)c1ccc(O)c(CO)c1` (configuration not stated) [Salbutamol] + C=CCn1c(=O)c2cnc(Nc3ccc(N4CCN(C)CC4)cc3)nc2n1-c1cccc(C(C)(C)O)n1 [MK1775], the “Z' of S-phase gammaH2AX difference (Z-score)” value is inactive: -0.378. The result for `CC(C)(C)NCC(O)c1ccc(O)c(CO)c1` (configuration not stated) [Albuterol hemisulfate] + C=CCn1c(=O)c2cnc(Nc3ccc(N4CCN(C)CC4)cc3)nc2n1-c1cccc(C(C)(C)O)n1 [MK1775] reads inactive: -0.483. On to `Cc1c(OCC(F)(F)F)ccnc1C[S+]([O-])c1nc2ccccc2[nH]1` (configuration not stated) [Lansoprazole] + C=CCn1c(=O)c2cnc(Nc3ccc(N4CCN(C)CC4)cc3)nc2n1-c1cccc(C(C)(C)O)n1 [MK1775], for which the “Z' of S-phase gammaH2AX difference (Z-score)” value was inactive: 0.81.

As to `[N-]=[N+]=Nc1ccc(C(=O)CSC[C@H](NC(=O)CC[C@H](N)C(=O)O)C(=O)NCC(=O)O)cc1` [S-(p-Azidophenacyl)glutathione] + C=CCn1c(=O)c2cnc(Nc3ccc(N4CCN(C)CC4)cc3)nc2n1-c1cccc(C(C)(C)O)n1 [MK1775], the “Z' of S-phase gammaH2AX difference (Z-score)” value was inactive: 0.0601. As for `C#CCN(C)CC1=Cc2ccccc2Oc2ccccc21` + C=CCn1c(=O)c2cnc(Nc3ccc(N4CCN(C)CC4)cc3)nc2n1-c1cccc(C(C)(C)O)n1 [MK1775], the “Z' of S-phase gammaH2AX difference (Z-score)” value was inactive: 0.301. `Cn1c(=O)c2c(ncn2C)n(C)c1=O` [Caffeine] + C=CCn1c(=O)c2cnc(Nc3ccc(N4CCN(C)CC4)cc3)nc2n1-c1cccc(C(C)(C)O)n1 [MK1775]: the “Z' of S-phase gammaH2AX difference (Z-score)” value is inactive: -0.271. The result for `CC[C@@H]1C(=O)N(C)c2cnc(Nc3ccc(C(=O)NC4CCN(C)CC4)cc3OC)nc2N1C1CCCC1` + C=CCn1c(=O)c2cnc(Nc3ccc(N4CCN(C)CC4)cc3)nc2n1-c1cccc(C(C)(C)O)n1 [MK1775] reads inactive: -0.214; that for `NC1CONC1=O` (racemic) [DL-Cycloserine] + C=CCn1c(=O)c2cnc(Nc3ccc(N4CCN(C)CC4)cc3)nc2n1-c1cccc(C(C)(C)O)n1 [MK1775], inactive: 0.818. With `COc1cc2nc(N3CCCN(C)CC3)nc(NC3CCN(Cc4ccccc4)CC3)c2cc1OC` + C=CCn1c(=O)c2cnc(Nc3ccc(N4CCN(C)CC4)cc3)nc2n1-c1cccc(C(C)(C)O)n1 [MK1775], the “Z' of S-phase gammaH2AX difference (Z-score)” value was inactive: -0.739. The result for `OC[C@H]1NC[C@@H](O)[C@@H]1O` [1,4-Dideoxy-1,4-imino-D-arabinitol] + C=CCn1c(=O)c2cnc(Nc3ccc(N4CCN(C)CC4)cc3)nc2n1-c1cccc(C(C)(C)O)n1 [MK1775] reads inactive: -1.29; that for `Cc1nc2c([nH]1)c(=O)n(C)c(=O)n2Cc1ccco1` [Furafylline] + C=CCn1c(=O)c2cnc(Nc3ccc(N4CCN(C)CC4)cc3)nc2n1-c1cccc(C(C)(C)O)n1 [MK1775], inactive: 1.04. `CCC1(C)CC(=O)NC1=O` (configuration not stated) [Ethosuximide] + C=CCn1c(=O)c2cnc(Nc3ccc(N4CCN(C)CC4)cc3)nc2n1-c1cccc(C(C)(C)O)n1 [MK1775]: the “Z' of S-phase gammaH2AX difference (Z-score)” value is inactive: 0.712. In the case of `COc1cc(CNC(=O)CCCCCCC(C)C)ccc1O` [Dihydrocapsaicin] + C=CCn1c(=O)c2cnc(Nc3ccc(N4CCN(C)CC4)cc3)nc2n1-c1cccc(C(C)(C)O)n1 [MK1775], the “Z' of S-phase gammaH2AX difference (Z-score)” value is inactive: 0.587. With `N#CC[C@H](C1CCCC1)n1cc(-c2ncnc3[nH]ccc23)cn1` + C=CCn1c(=O)c2cnc(Nc3ccc(N4CCN(C)CC4)cc3)nc2n1-c1cccc(C(C)(C)O)n1 [MK1775], the “Z' of S-phase gammaH2AX difference (Z-score)” value was inactive: -0.242. Turning to `CCCCS(=N)(=O)CCC(N)C(=O)O` [L-Buthionine-sulfoximine] + C=CCn1c(=O)c2cnc(Nc3ccc(N4CCN(C)CC4)cc3)nc2n1-c1cccc(C(C)(C)O)n1 [MK1775], the “Z' of S-phase gammaH2AX difference (Z-score)” value was inactive: -0.454. Regarding `COc1cccc(OC)c1OCCNCC1CSc2ccccc2O1` (configuration not stated) [Benoxathian hydrochloride] + C=CCn1c(=O)c2cnc(Nc3ccc(N4CCN(C)CC4)cc3)nc2n1-c1cccc(C(C)(C)O)n1 [MK1775], the “Z' of S-phase gammaH2AX difference (Z-score)” value is inactive: 0.00334. As for `CCC(C)(C)C(=O)O[C@H]1C[C@@H](C)C=C2C=C[C@H](C)[C@H](CC[C@@H]3C[C@@H](O)CC(=O)O3)[C@H]21` [Simvastatin (Zocor)] + C=CCn1c(=O)c2cnc(Nc3ccc(N4CCN(C)CC4)cc3)nc2n1-c1cccc(C(C)(C)O)n1 [MK1775], the “Z' of S-phase gammaH2AX difference (Z-score)” value was inactive: 0.224.
